Experimental data reported in paper PMC7486383, “Protrudin and PDZD8 contribute to neuronal integrity by promoting lipid extraction required for endosome maturation” (Nature Communications, 2020).
These are yes or no findings as the source states them, for the method shown. In cells and extracts the contact can be indirect. Binding calls can cover weak binding; strength is not graded here. For part of these data: Tags and fused reporters may be left off the sequences shown.

What was measured:
[1] = biological target: T1, FLAG-protrudin (not stated (human or mouse cDNA cloned)) (UniProt Q5T4F4); assay: co-IP; epitope-tagged proteins co-expressed in HEK293T cells; IP with primary antibodies and protein G-Sepharose, 1 h at 4 °C, three washes with lysis buffer; immunoblot
T1 sequence: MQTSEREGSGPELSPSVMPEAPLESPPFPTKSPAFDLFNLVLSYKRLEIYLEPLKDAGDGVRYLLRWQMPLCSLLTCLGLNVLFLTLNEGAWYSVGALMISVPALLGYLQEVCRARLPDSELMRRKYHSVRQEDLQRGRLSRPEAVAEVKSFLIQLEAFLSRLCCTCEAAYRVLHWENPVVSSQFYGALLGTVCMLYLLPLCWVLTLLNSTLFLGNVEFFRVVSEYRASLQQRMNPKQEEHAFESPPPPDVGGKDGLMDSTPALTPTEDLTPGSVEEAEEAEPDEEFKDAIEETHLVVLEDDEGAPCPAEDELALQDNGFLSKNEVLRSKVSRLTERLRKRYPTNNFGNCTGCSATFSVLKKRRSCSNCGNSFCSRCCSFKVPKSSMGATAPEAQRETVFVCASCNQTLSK

[2] = biological target: T2, protrudin (co-immunoprecipitation of Supplementary Fig. 7c) (not stated (human or mouse cDNA cloned)) (UniProt Q5T4F4); assay: co-IP; PDZD8(WT), PDZD8(ΔTM) or TM-domain chimeras with protrudin (Supplementary Fig. 7c); cells and tags not given
T2 sequence: T1 sequence

Row | Substance | binding [1] | binding [2]
1 | Myc epitope-tagged PDZD8 (mouse) | binds | 
2 | PDZD8(ΔTM) (mouse) (domain or fragment) |  | no binding
3 | PDZD8(WT) (mouse) |  | binds
